Results are given in words; binding and its absence hold for the method and conditions named. Some binding calls cover weakened binding; strength is not graded here.
Molecular target: T1, human TL1A C95S/C135S double mutant (human) (UniProt O95150)
T1 sequence: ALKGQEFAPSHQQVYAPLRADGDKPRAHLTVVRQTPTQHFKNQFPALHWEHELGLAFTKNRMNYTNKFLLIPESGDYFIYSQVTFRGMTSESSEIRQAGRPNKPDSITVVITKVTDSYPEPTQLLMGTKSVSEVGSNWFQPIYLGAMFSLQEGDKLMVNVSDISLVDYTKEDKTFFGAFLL
Assay: co-crystal

B1: DR3 in the TL1A:DR3 crystal complex (receptor, UniProt Q93038 25-199, looked up)
chain: QGGTRSPRCDCAGDFHKKIGLFCCRGCPAGHYLKAPCTEPCGNSTCLVCPQDTFLAWENHHNSECARCQACDEQASQVALENCSAVADTRCGCKPGWFVECQVSQCVSSSPFYCQPCLDCGALHRHTRLLCSRRDTDCGTCLPGFYEHGDGCVSCPTSTLGSCPERCAAVCGWRQ
binding: binds

Source: patent US20260210971A1
